Source: article PMC8539145, “Function and Characterization Analysis of BodoOBP8 from Bradysia odoriphaga (Diptera: Sciaridae) in the Recognition of Plant Volatiles and Sex Pheromones” (Insects, 2021)
The source holds more than one record for some entries. The list is limited to them. The source may hold further records. Values given together differ for a reason that is not stated; they may come from other doses, times, organisms or constructs than stated.

The chains behind the UniProt entries cited, without tags or fusion partners. Residues count along the entry.
UniProt A0A2S0X9G3, 18-144 limits assumed: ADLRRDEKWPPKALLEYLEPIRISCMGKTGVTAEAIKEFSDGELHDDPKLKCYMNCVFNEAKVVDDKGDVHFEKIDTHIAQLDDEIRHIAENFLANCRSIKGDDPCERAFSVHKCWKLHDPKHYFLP

Target: BodoOBP8 (Bradysia odoriphaga, UniProt A0A2S0X9G3)
Experiment: Fluorescence competitive binding assay (1-NPN probe) with recombinant BodoOBP8
Conditions: calculated from IC50 of 1-NPN displacement, listed as methyl allyl disulfide

With `C=CCSSC` [Methyl allyl disulfide] the Ki was 4.04 µM and < 10 µM.
